Measurements reported in PubChem BioAssay AID504791 (Drosophila RNAi Screening Center, 2011).
The deposit covers about 23,000 reagents; shown is a random part of those that have a named target and a result. Of all reagents, 199 (0.86%) got an active call. 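Plate-scaled ratios behind the calls are not deposited; printed light signals are raw; many rows marked increased or decreased are still called inactive.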 A number with no mark means an inactive call. A plus sign joins genes that one reagent is predicted to hit. The record does not give: the direction of the score.

- Purpose: 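Factors in Argonaute-based small RNA production and activity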 (primary screen)
- Cells: Drosophila S2-derived reporter cells
- Reagents: long dsRNA against Drosophila genes, about 150-250 ng dsRNA per well (siRNA assay); about 80-120 ng (miRNA assay)
- Duration: about 5 days (siRNA assay); about 4 days (miRNA assay)
- Challenge: copper sulfate induction of reporters: 25 µM (siRNA assay); 200 mM stated (miRNA assay), 1-2 days before reading
- Measured: 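Dual luciferase assay: Renilla to firefly signal ratio in each well, scaled to the mean ratio of its plate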
- Units: stable assay Renilla, run 1 in luminescence; stable assay firefly, run 1 in luminescence
- Hit rule: 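a well was a first-pass pick when its plate-scaled ratio rose above 1.5 (siRNA assay) or 1.6 (miRNA assay), or dropped below 0.6; a gene counted only if two separate dsRNAs agreed on retest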

gene knocked down	amplicon	stable siRNA reporter change	miRNA reporter change	stable assay Renilla, run 1	stable assay firefly, run 1
mRpL23 (mitochondrial ribosomal protein L23)	DRSC08307			6398	4.26e5
S (Star)	DRSC00785			5579	2.68e5
Inx3 (Innexin 3)	DRSC14857			9542	4.91e5
Smyd3 (SET and MYND domain containing, class 3)	DRSC17744			7360	3.96e5
elg1 (enhanced level of genomic instability 1)	DRSC10229			9626	3.82e5
CG12902	DRSC06217			6878	4.25e5
tgy (twiggy)	DRSC20045			6346	4.30e5
CG31953 (retired record) + gkt	DRSC00709			15029	2.01e5
t-Grip91 (testis-specific gamma-tubulin ring protein 91)	DRSC01506			5259	3.81e5
dtr (defective transmitter release)	DRSC01847			5684	3.93e5
CG14207	DRSC19562	reporter ratio lowered past the hit cutoff		7299	7.25e5
CG14207	DRSC19563			6439	4.18e5
Dh31 (Diuretic hormone 31)	DRSC02196			6320	4.04e5
Mst89B	DRSC16748			7755	5.18e5
ksr (kinase suppressor of ras)	DRSC12379			5843	2.78e5
Zyx (Zyxin)	DRSC17186			5907	3.10e5
gskt (gasket)	DRSC14056			9650	4.29e5
CG31897	DRSC01020			4307	3.72e5
CG40006	DRSC03787			6431	5.33e5
CG40006	DRSC03809			6335	4.99e5
CG40006	DRSC03814			6451	3.55e5
CG40006	DRSC03817			5891	4.13e5
Mesh1 (Metazoan SpoT homolog-1)	DRSC14433			6671	5.68e5
TwdlC (TweedleC)	DRSC14749			8087	4.57e5
CG7888	DRSC10926			6923	4.65e5
Hpf1 (Histone PARylation factor 1)	DRSC12202			8732	4.57e5
ncm (nucampholin)	DRSC02179			6023	1.28e6
CG33342 (HDC15381)	DRSC13662			6072	4.02e5
CG6726	DRSC16101			6786	3.33e5
tud (tudor)	DRSC04719			8326	4.41e5
Sema2a (Semaphorin 2a)	DRSC07551			8111	3.57e5
CG12084	DRSC08247			10009	5.03e5
CG12084	DRSC26814		reporter ratio lowered past the hit cutoff		
CG13101	DRSC02201			6384	3.29e5
PGRP-SB1 (Peptidoglycan recognition protein SB1)	DRSC11090			7151	4.14e5
FoxP (Forkhead box P)	DRSC15159			6490	3.63e5
FoxP (Forkhead box P)	DRSC21961			8888	5.36e5
CG14826	DRSC10197			6010	4.92e5
tinc (tincar)	DRSC14798			6320	4.46e5
tinc (tincar)	DRSC14799			7953	4.62e5
tinc (tincar)	DRSC16308			8079	3.37e5
tinc (tincar)	DRSC16309			7771	5.12e5
MED10 (Mediator complex subunit 10)	DRSC10474			5570	2.64e5
B52	DRSC14121			4915	4.87e5
CG33330 (retired record)	DRSC13053		reporter ratio raised past the hit cutoff	3324	2.59e5
CG33330 (retired record)	DRSC15495			7998	5.11e5
CG11854	DRSC14409			6714	3.69e5
CG10680	DRSC02093			6263	4.12e5
Pep (Protein on ecdysone puffs)	DRSC11252		reporter ratio raised past the hit cutoff (active)	10798	2.73e5
Axn (Axin)	DRSC14120			4351	3.64e5
Frl (Formin-like)	DRSC09300			6127	3.54e5
Frl (Formin-like)	DRSC10027			7861	4.99e5
Frl (Formin-like)	DRSC10716			4468	4.90e5
Chsy (Chondroitin sulfate synthase)	DRSC20175			5891	4.41e5
Chsy (Chondroitin sulfate synthase)	DRSC20176			4199	3.53e5
HERC2 (HECT and RLD domain containing protein 2)	DRSC20566			5947	3.88e5
Kif3C (Kinesin family member 3C)	DRSC17209			6375	3.92e5
Kif3C (Kinesin family member 3C)	DRSC17210			5639	4.14e5
CG17477	DRSC15239			7508	4.25e5
CG13989	DRSC02321			6943	4.46e5
S-Lap7 (Sperm-Leucylaminopeptidase 7)	DRSC06374			6622	3.45e5
CG3085	DRSC04335			17822	4.05e5
CG6262	DRSC06971			4587	1.84e5
CG6262	DRSC23105			3155	3.34e5
Mhcl (Myosin heavy chain-like)	DRSC13130			4063	4.42e5
Mhcl (Myosin heavy chain-like)	DRSC14216			7810	4.05e5
Mhcl (Myosin heavy chain-like)	DRSC16753			8630	3.52e5
r + CG13012	DRSC19531			5318	4.95e5
CG31360	DRSC13255			3247	3.49e5
shi (shibire)	DRSC20373			9066	5.07e5
eIF4G2 (eukaryotic translation initiation factor 4G2)	DRSC14207			9044	5.35e5
eIF4G2 (eukaryotic translation initiation factor 4G2)	DRSC21739			9042	5.56e5
Tengl2 (Testis EndoG-Like 2)	DRSC21968			9706	5.85e5
CG12129	DRSC06105			8260	3.61e5
DopEcR (Dopamine/Ecdysteroid receptor)	DRSC08529			8735	4.23e5
Mekk1	DRSC16302			6535	3.24e5
Mekk1	DRSC16303		reporter ratio lowered past the hit cutoff	6936	4.42e5
Jhbp4 (Juvenile hormone binding protein 4)	DRSC14222			6806	3.35e5
CG15531	DRSC15068			6058	4.16e5
CG15646	DRSC19682			5232	4.06e5
gprs	DRSC06761			6211	2.36e5
CG33158	DRSC09708			5032	5.66e5
CG33158	DRSC09709			8079	5.44e5
CG33158	DRSC10438			8410	4.04e5
CG1324	DRSC20496			8129	4.71e5
Cpr72Ea (Cuticular protein 72Ea)	DRSC10451			8550	2.98e5
SLIRP2 (SRA stem-loop interacting RNA binding protein 2)	DRSC16363			6774	4.33e5
CG14022	DRSC02352			7031	3.92e5
Spt-I (Serine palmitoyltransferase subunit I)	DRSC06860			5407	3.25e5
SA1 (Stromalin 1)	DRSC03424			10939	2.91e5
CG12862	DRSC06202			5688	3.59e5
sip2 (septin interacting protein 2)	DRSC03154			7295	3.91e5
CG13721	DRSC08330			6015	4.58e5
babo (baboon)	DRSC07581			6732	4.01e5
bam (bag of marbles)	DRSC16907			6539	3.87e5
CG30148	DRSC06391			3827	3.65e5
CG3014	DRSC15458			7267	3.95e5
Pis (Phosphatidylinositol synthase)	DRSC20178			5235	3.50e5
CG32050 (retired record)	DRSC10173			4735	2.75e5
ema (endosomal maturation defective)	DRSC14536			7043	4.56e5
CG5897	DRSC10555			6863	4.58e5
CG3588	DRSC18473			5363	3.27e5
CG18545	DRSC15343			6267	4.12e5
Pits (Protein interacting with Ttk69 and Sin3A)	DRSC19385		reporter ratio raised past the hit cutoff	5319	4.34e5
Pits (Protein interacting with Ttk69 and Sin3A)	DRSC19812			4975	5.02e5
CheA84a (Chemosensory protein A 84a)	DRSC12669			5087	3.12e5

Targets listed so far whose gene name begins with G or g:
gene knocked down	amplicon	stable siRNA reporter change	miRNA reporter change	stable assay Renilla, run 1	stable assay firefly, run 1
gskt (gasket)	DRSC14056			9650	4.29e5
gprs	DRSC06761			6211	2.36e5
